For two molecules, binding results are on record in article PMC4394509.

Sequences of proteins named here, by UniProt entry; tags and fusion partners are left off.
UniProt Q92674: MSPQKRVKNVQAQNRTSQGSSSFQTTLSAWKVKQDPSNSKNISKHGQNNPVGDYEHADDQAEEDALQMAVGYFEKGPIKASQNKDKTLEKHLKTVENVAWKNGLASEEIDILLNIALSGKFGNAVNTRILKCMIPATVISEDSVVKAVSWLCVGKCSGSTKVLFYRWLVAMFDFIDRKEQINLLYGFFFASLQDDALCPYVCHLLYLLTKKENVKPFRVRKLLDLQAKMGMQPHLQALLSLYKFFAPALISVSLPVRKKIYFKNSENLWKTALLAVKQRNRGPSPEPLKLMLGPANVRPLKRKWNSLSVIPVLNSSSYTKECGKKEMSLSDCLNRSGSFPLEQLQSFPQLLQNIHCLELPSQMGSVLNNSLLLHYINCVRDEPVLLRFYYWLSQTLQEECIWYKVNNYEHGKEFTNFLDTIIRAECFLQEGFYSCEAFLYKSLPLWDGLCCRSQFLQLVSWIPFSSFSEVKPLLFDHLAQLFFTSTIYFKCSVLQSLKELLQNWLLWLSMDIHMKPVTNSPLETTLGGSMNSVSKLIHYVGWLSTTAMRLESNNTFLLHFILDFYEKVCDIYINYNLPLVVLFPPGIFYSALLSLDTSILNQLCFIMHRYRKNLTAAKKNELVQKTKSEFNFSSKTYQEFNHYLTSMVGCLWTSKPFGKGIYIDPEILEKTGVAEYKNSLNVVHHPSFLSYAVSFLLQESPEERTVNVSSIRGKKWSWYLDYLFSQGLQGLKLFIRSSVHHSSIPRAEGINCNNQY
UniProt Q9NSP4: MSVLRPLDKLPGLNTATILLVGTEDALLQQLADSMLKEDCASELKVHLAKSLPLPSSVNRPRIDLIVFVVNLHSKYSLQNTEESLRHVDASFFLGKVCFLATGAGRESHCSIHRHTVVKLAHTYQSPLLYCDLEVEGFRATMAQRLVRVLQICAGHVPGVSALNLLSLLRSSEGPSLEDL

In assay [1] the target is CENP-I (Fluorescence Cross Correlation Spectroscopy) (UniProt Q92674). The assay can be described thus: Fluorescence Cross Correlation Spectroscopy; in the nucleoplasm.
In assay [2] the target is CENP-I labelled at its N-terminus (FRET and FLIM, data not shown) (UniProt Q92674). The assay can be described thus: FRET or BRET; acceptor-bleaching FRET and Fluorescence Lifetime Imaging (FLIM); data not shown.

No constants are given. Whether binding was seen depends on the method and setting. For some assays here: In cells and extracts the contact can be indirect. Some entries that bind do so weakly or less than the wild type.

For “CENP-M (Fluorescence Cross Correlation Spectroscopy) (from UniProt Q9NSP4 1-180)”, the binding entry in assay [1] is reported as “binds”.

B1: CENP-B labelled at its C-terminus (FRET and FLIM, data not shown) (protein, UniProt P07199 1-599)
chain: MGPKRRQLTFREKSRIIQEVEENPDLRKGEIARRFNIPPSTLSTILKNKRAILASERKYGVASTCRKTNKLSPYDKLEGLLIAWFQQIRAAGLPVKGIILKEKALRIAEELGMDDFTASNGWLDRFRRRHGVVSCSGVARARARNAAPRTPAAPASPAAVPSEGSGGSTTGWRAREEQPPSVAEGYASQDVFSATETSLWYDFLPDQAAGLCGGDGRPRQATQRLSVLLCANADGSEKLPPLVAGKSAKPRAGQAGLPCDYTANSKGGVTTQALAKYLKALDTRMAAESRRVLLLAGRLAAQSLDTSGLRHVQLAFFPPGTVHPLERGVVQQVKGHYRQAMLLKAMAALEGQDPSGLQLGLTEALHFVAAAWQAVEPSDIAACFREAGFGGGPNATITTSLKSEGEEEEEEEEEEEEEEGEGEEEEEEGEEEEEEGGEGEELGEEEEVEEEGDVDSDEEEEEDEESSSEGLEAEDWAQGVVEAGGSFGAYGAQEEAQCPTLHFLEGGEDSDSDSEEEDDEEEDDEDEDDDDDEEDGDEVPVPSFGEAMAYFAMVKRYLTSFPIDDRVQSHILHLEHDLVHVTRKNHARQAGVRGLGHQS
Regarding B1, the binding result in assay [2] is given as “binds”.
